Assay results: PMC12674568
No constants are given. Whether binding was seen depends on the method and setting. In cells and extracts the contact can be indirect. Some binding calls cover weakened binding; strength is not graded here.

By UniProt entry, the sequences of proteins in these tests, tags left out.
UniProt P30153: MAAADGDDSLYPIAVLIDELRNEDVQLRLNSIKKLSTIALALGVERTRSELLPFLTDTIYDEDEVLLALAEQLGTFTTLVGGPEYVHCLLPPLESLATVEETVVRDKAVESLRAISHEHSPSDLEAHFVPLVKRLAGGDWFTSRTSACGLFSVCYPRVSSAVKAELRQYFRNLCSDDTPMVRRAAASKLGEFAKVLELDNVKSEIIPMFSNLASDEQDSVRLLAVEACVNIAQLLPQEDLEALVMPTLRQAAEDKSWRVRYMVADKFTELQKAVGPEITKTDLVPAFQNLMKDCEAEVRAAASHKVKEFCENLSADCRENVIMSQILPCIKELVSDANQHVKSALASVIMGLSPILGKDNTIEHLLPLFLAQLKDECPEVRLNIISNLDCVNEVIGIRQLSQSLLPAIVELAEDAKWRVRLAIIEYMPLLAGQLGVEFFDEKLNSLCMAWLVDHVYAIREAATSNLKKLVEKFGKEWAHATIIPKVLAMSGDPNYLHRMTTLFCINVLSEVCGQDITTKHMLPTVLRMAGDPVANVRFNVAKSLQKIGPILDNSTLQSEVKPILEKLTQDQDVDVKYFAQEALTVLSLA
UniProt F5HCV3: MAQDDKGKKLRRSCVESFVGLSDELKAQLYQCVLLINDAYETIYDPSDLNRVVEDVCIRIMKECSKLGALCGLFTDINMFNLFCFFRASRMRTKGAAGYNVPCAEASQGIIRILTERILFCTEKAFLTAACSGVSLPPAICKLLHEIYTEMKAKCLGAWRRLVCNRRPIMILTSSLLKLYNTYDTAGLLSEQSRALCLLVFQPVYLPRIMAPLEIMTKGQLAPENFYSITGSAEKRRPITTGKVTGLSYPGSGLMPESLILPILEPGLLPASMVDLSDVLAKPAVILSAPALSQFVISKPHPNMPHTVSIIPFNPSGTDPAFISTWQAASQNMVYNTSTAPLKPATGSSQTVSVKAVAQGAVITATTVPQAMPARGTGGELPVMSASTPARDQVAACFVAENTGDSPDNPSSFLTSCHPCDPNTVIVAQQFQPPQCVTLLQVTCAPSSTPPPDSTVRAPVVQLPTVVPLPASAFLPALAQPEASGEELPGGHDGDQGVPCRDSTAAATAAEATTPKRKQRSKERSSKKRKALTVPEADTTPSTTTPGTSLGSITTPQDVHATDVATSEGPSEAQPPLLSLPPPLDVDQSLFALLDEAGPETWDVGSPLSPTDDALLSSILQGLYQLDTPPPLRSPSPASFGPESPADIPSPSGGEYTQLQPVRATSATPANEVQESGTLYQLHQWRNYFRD

Assays:
Assay in all cases: co-IP
[1] = target: PPP2R1A, scaffold A subunit of phosphatase PP2A, Flag-tagged (human (cDNA from iSLK.RGB cells)) (UniProt P30153)
[2] = target: KSHV replication and transcription activator (RTA), induced by doxycycline in iSLK cells (KSHV (human herpesvirus 8)) (UniProt F5HCV3)
[3] = target: KSHV replication and transcription activator (RTA), Flag-tagged (KSHV (human herpesvirus 8)) (UniProt F5HCV3)

In the case of “KSHV replication and transcription activator (RTA), HA-tagged (from UniProt F5HCV3 1-691)”, the binding [1] is reported as “binds”.

For “endogenous PPP2R1A, scaffold A subunit of phosphatase PP2A (from UniProt P30153 1-589)”, the binding [2] was “binds”.

“PPP2R1A, scaffold A subunit of phosphatase PP2A, HA-tagged (from UniProt P30153 1-589)” was tested, and the binding [3] was “binds”.
